Consider four compounds from patent US20090315454A1, “IRIDIUM COMPLEX COMPOUND, ORGANIC ELECTROLUMINESCENT DEVICE OBTAINED BY USING THE SAME, AND USES OF THE DEVICE” (Showa Denko K.K., priority 2006, published 2009).

The data set can be described thus: Evaluation of luminescent characteristics of organic EL device. Conditions: for External quantum efficiency (%): at 100 cd/m^2, average of four devices; for Emission Uniformity / Luminescent color: organic EL device, luminescent layer of complex in poly(N-vinylcarbazole). As for the experimental part:
An organic EL device was produced with use of a substrate (manufactured by Nippo Electric Co., Ltd.) provided with ITO (indium tin oxide) which was composed of a 25 mm square glass substrate and in which two stripe ITO electrodes having a width of 4 mm were formed as anodes on one surface. First, the substrate with the ITO electrodes (anodes) was spin coated with poly(3,4-ethylenedioxythiophene)-polystyrenesulfonic acid (trade name “Baytron P”, manufactured by Bayer AG) at 3500 rpm for a coating time of 40 seconds. The coating was dried at 60° C. for 2 hours under reduced pressure in a vacuum drying machine to form an anode buffer layer.
Next, a coating solution for forming a luminescent layer was prepared. Specifically, 15 mg of the facial iridium complex compound (A) synthesized in Example 1 and 135 mg of poly(N-vinylcarbazole) were dissolved in 9850 mg of chloroform (guaranteed grade, manufactured by Wako Pure Chemical Industries, Ltd.). The solution obtained was filtrated through a filter having a pore diameter of 0.2 μm to give a coating solution. Then, the coating solution was applied on the anode buffer layer by a spin coating method at 3000 rpm for a coating time of 30 seconds. The coating was dried at room temperature (25° C.) for 30 minutes, whereby a luminescent layer was formed. […] Next, the substrate on which the luminescent layer was formed was placed in a vapor deposition apparatus. Barium was deposited in a thickness of 5 nm at a deposition rate of 0.01 nm/second. Subsequently, aluminum was deposited as cathodes in a thickness of 150 nm at a deposition rate of 1 nm/second. Consequently, a device 1 was manufactured. The barium/aluminum layers formed two stripes having a width of 3 mm which were orthogonal to the extending direction of the anodes. Thus, four organic EL devices 4 mm in length and 3 mm in width were prepared on the glass substrate.
The organic EL device was allowed to emit light by application of a voltage by means of programmable direct-current voltage/current source TR6143 manufactured by ADVANTEST CORPORATION. The emission luminance thereof was measured by means of luminance meter BM-8 manufactured by TOPCON CORPORATION. […] The luminance half-life in Table 2 is a relative value based on the measured value (100) of a device 7 described later.
Devices 2 to 6 were prepared by the same method as producing the device 1, except that the facial complex compound (A) was changed to the luminescent materials shown in Table 2. The luminescent characteristics of these devices were evaluated in the same manner as in the device 1.
Devices 7 and 8 were prepared by the same method as producing the device 1, except that the facial complex compound (A) was changed to the luminescent materials shown in Table 2. The luminescent characteristics of these devices were evaluated in the same manner as in the device 1.

As to `CCCc1cc(-c2c(F)cc(F)c[c]2[Ir]([c]2cc(F)cc(F)c2-c2cc(CCC)c(CC)cn2)[c]2cc(F)cc(F)c2-c2cc(CCC)c(CC)cn2)ncc1CC` [Compound (D) facial complex], the “External quantum efficiency (%)” value came to 6.4%, the “Emission Uniformity” value is reported as “Uniform” and the Luminescent color entry is on record as “Blue”.

Regarding `CCCCCc1ccnc(-c2c(F)cc(F)c[c]2[Ir]([c]2cc(F)cc(F)c2-c2cc(CCCCC)ccn2)[c]2cc(F)cc(F)c2-c2cc(CCCCC)ccn2)c1` [Compound (B) facial complex], the “External quantum efficiency (%)” value was 5.7%, the “Emission Uniformity” value was “Uniform” and the Luminescent color result is “Blue”.

`CCCCC(CCCC)c1ccnc(-c2c(F)cc(F)c[c]2[Ir]([c]2cc(F)cc(F)c2-c2cc(C(CCCC)CCCC)ccn2)[c]2cc(F)cc(F)c2-c2cc(C(CCCC)CCCC)ccn2)c1` [Compound (C) facial complex]: the “External quantum efficiency (%)” value is 6.1%, the “Emission Uniformity” value is reported as “Uniform” and the Luminescent color entry was “Blue”.

For the compound `CC(C)(C)c1ccnc(-c2[c-]cc(F)cc2F)c1.CC(C)(C)c1ccnc(-c2[c-]cc(F)cc2F)c1.CC(C)(C)c1ccnc(-c2[c-]cc(F)cc2F)c1.[Ir+3]` [Compound (A) meridional complex], the “External quantum efficiency (%)” value came to 5.2%, the “Emission Uniformity” value is recorded as “Uniform” and the Luminescent color result is reported as “Blue”.
